Hit rate of the full screen: of about 580,000 compounds, about 6,100 (1.1%) were called active. The shares of active, inactive and inconclusive entries below differ from those in the screen. Calls follow the shape of the dose curve; as a rule, active = well fitted inhibition curve with a large enough effect; inconclusive = small, poorly fitted or top-dose-only effect, or another doubt; inactive = no such curve, though single readings can be large or run the other way. Potencies beside an inconclusive call are fits to weak or partial responses and may not hold up.
Molecular target: Polyunsaturated fatty acid lipoxygenase ALOX12 (Homo sapiens) (UniProt P18054)
Test: Primary qHTS assay for inhibitors of human arachidonate 12S-lipoxygenase (ALOX12): Round 2
Details: purified 12hLO, xylenol orange hydroperoxide absorbance; series mostly up to 108 µM
In short: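 Purified human 12hLO at 150 nM in 25 mM Hepes, 0.01% Triton X-100, pH 7.0, preincubated 15 min at room temperature with compound. Reaction started with 40 uM arachidonic acid, 30 min at room temperature. Hydroperoxide measured by Fe-xylenol orange, 573/405 nm absorbance ratio.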
Potency is read from the fitted curve at half-maximal effect.

The chains behind the UniProt entries cited, without tags or fusion partners. Where a name states a change or a piece, a line headed by the entry shows the natural chain unless it says otherwise.
UniProt P18054: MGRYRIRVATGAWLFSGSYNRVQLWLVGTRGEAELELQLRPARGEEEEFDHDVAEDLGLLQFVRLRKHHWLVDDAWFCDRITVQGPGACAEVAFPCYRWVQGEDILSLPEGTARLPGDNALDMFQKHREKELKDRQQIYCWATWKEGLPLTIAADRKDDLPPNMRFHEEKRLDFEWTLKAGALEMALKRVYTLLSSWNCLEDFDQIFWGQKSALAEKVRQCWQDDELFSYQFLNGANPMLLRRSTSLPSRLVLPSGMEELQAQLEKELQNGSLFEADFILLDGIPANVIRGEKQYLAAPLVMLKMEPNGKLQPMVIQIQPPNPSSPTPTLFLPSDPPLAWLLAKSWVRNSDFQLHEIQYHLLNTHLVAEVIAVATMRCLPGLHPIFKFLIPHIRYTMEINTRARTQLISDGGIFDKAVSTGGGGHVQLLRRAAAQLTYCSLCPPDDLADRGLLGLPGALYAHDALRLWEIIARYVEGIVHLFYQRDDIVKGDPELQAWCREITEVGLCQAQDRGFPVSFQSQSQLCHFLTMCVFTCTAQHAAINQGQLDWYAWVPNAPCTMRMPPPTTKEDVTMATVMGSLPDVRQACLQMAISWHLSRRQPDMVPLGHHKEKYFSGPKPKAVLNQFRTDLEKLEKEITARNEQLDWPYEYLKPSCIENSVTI

Structure (SMILES) | Potency
O=C(O)c1ccc(C(=O)O)s1 | inconclusive: 12.6 µM [inhibitor, full curve, poor fit]
C(=N\n1cnnc1)/c1ccc(N2CCOCC2)cc1 | inactive
O=C(O)CCCCCN1C(=O)C(O)=C(C(=O)/C=C/c2ccccc2)C1c1ccccc1[N+](=O)[O-] (configuration not stated) | inconclusive: 44.7 µM [inhibitor, partial curve, poor fit]
Cc1ccc(C)c(/C=N/n2cc(-c3ccccc3)[nH]c2=S)c1 | inconclusive: 39.8 µM [inhibitor, partial curve, poor fit]
CSc1ccc(/C=C/C(=O)c2cc(C)sc2C)cc1 | inactive
COC(=O)n1ccc(C(=O)Nc2ccccc2F)n1 | inconclusive: 50.1 µM [inhibitor, partial curve, poor fit]
COC(=O)c1sc2ccccc2c1S(=O)(=O)N1CCN(c2cc(Cl)ccc2C)CC1 | inconclusive: 35.5 µM [inhibitor, partial curve, poor fit]
COc1ccc2nc(/C(C#N)=C\c3ccc(C(=O)O)cc3)[nH]c2c1 | inactive
COc1ccccc1/C=C/C=N/n1c(-c2cc(C)[nH]n2)n[nH]c1=S | inconclusive: 50.1 µM [inhibitor, partial curve, poor fit]
COc1ccc(C[N+]2=C(N)NC3=C(C)Cn4c(=O)n(-c5ccccc5)c(=O)n4C3C2)c(OC)c1 (configuration not stated) | inconclusive: 35.5 µM [inhibitor, full curve, poor fit]
Cc1ccc(N2CCN(C(=O)c3cn(C)c4ccc(S(=O)(=O)N(C)C)cc4c3=O)CC2C)cc1 (configuration not stated) | inconclusive: 141 µM [inhibitor, partial curve, poor fit]
OC1(c2cccs2)CN(c2ccccc2)C2=[N+]1CCCC2 (configuration not stated) | inactive
Cc1nc(Nc2ccc(Cl)cc2)c2nnn(Cc3ccccc3)c2n1 | inactive
O=C(CSc1ncc(-c2ccc(F)cc2)[nH]1)N1CCCCC1 | inconclusive: 3.55 µM [inhibitor, full curve, poor fit]
CCc1n[nH]c(=S)n1/N=C/c1cc(OC)cc([N+](=O)[O-])c1O | inconclusive: 70.8 µM [inhibitor, partial curve, poor fit]
CC(=O)Nc1nnc(C2=COCCO2)o1 | inconclusive: 3.98 µM [inhibitor, full curve, poor fit]
CC(=O)c1cccc(-c2ccnc3c2CC(C(=O)Nc2ccc4c(c2)OCO4)O3)c1 (configuration not stated) | inactive
c1ccc2c(c1)CCN(c1nc3cc4c(cc3s1)OCCO4)C2 | inconclusive: 100 µM [inhibitor, partial curve, poor fit]
CC(OC(=O)CCc1nc2ccccc2c(=O)[nH]1)C(=O)c1ccc(Br)cc1 (configuration not stated) | inconclusive: 89.1 µM [inhibitor, single point]
COc1ccc(CNC(=O)Cc2c(C)c3c(OC(C)=O)cc(OC(C)=O)cc3oc2=O)cc1 | inconclusive: 79.4 µM [inhibitor, single point]
Cc1ccc(N(CCC(=O)N2CCOCC2)S(=O)(=O)c2ccccc2)cc1 | inconclusive: 44.7 µM [inhibitor, partial curve, poor fit]

Structure (SMILES) | Potency
COc1ccc(NC(=O)/C=C/c2ccc(Br)o2)cn1 | inconclusive: 20 µM [inhibitor, partial curve, poor fit]
CCC(NC(=O)c1ccncc1)C12CC3CC(CC(C3)C1)C2 (configuration not stated) | inconclusive: 0.316 µM [inhibitor, full curve, poor fit]
Cc1ccccc1C(=O)O/N=C/c1c(N2CCOCC2)n(C)c2ccccc12 | inactive
CCCCCCN(CCC(=O)NCCc1ccccc1)C(=O)c1cc(C)oc1C | inconclusive: 10 µM [inhibitor, full curve]
COc1ccc(Cl)cc1NC(=O)c1c(NCc2cccnc2)sc2c1CCC(C)C2 (configuration not stated) | inconclusive: 39.8 µM [inhibitor, partial curve]
CCCN1CCCC12Cc1ccccc1CN(C(=O)CCNC(C)=O)C2 (configuration not stated) | inconclusive: 31.6 µM [inhibitor, single point]
O=C1NCc2ccccc2CC12CCCN2Cc1ccc(Cl)s1 (configuration not stated) | inconclusive: 100 µM [inhibitor, partial curve]
CC(C)CC(=O)N1CCN(C(=O)c2ccc(F)cc2)CC1 | inactive
CS(=O)(=O)N1CCCCCCNC(=O)[C@@H]2CCC[C@@H]21 | inactive
CCOC(=O)N1CCN(C(=O)c2cc3occc3n2Cc2ccccc2F)CC1 | inconclusive: 39.8 µM [inhibitor, partial curve, poor fit]
CCN1CCN(C(c2ccc(SC)cc2)c2c(O)cc(C)n(CCOC)c2=O)CC1 (configuration not stated) | inconclusive: 100 µM [inhibitor, partial curve, poor fit]
COC(=O)C1=C(C)NC(C)=C(C(=O)NCCCN2CCC(c3ccccc3)(c3ccccc3)CC2)C1c1ccc([N+](=O)[O-])cc1 (configuration not stated) | inconclusive: 12.6 µM [inhibitor, partial curve, poor fit]
Nc1c(C(=O)Nc2ccccc2F)sc2nc(-c3cccnc3)ccc12 | inconclusive: 112 µM [inhibitor, single point]
COc1cccc(CN2CCC(C(O)(c3ccccc3)c3ccccc3)CC2)c1OC | inconclusive: 1 µM [inhibitor, full curve]
O=C1CC(N2CCN(c3ccccc3O)CC2)C(=O)N1Cc1ccccc1 (configuration not stated) | inactive
COC(=O)c1ccsc1NS(C)(=O)=O | inconclusive: 200 µM [inhibitor, partial curve, poor fit]
COc1cc(C)ccc1OCCOCCOc1ccccc1Br | inactive
CSC1=N/C(=C\c2ccc(Br)o2)C(=O)S1 | inconclusive: 50.1 µM [inhibitor, partial curve, poor fit]
CC(=O)C1=C(c2ccccc2)NC(=O)NC1c1ccc(O)c(O)c1 (configuration not stated) | inconclusive: 39.8 µM [inhibitor, partial curve, poor fit]
CCOC(=O)c1ccccc1NC(=O)CN(c1ccccc1C)S(C)(=O)=O | inactive
O=C(NS(=O)(=O)c1cccs1)[C@H]1O[C@@H](n2ccc(=O)[nH]c2=O)[C@H](O)[C@@H]1O | active: 31.6 µM

Look-ups from above:
Potency, COc1ccc(C[N+]2=C(N)NC3=C(C)Cn4c(=O)n(-c5ccccc5)c(=O)n4C3C2)c(OC)c1 (configuration not stated) reads inconclusive: 35.5 µM [inhibitor, full curve, poor fit]
Potency, COC(=O)n1ccc(C(=O)Nc2ccccc2F)n1 reads inconclusive: 50.1 µM [inhibitor, partial curve, poor fit]

— PubChem BioAssay AID1671190 (National Center for Advancing Translational Sciences (NCATS), 2021)
